{"source": "patent US11787790B2", "about": "“Benzimidazole derivative having fluorine-containing substituent, preparation and application thereof” (YUNBAIYAO ZHENGWU SCIENCE AND TECHNOLOGY (SHANGHAI) CO., …, priority 2020, dated 2023)", "note": "Some results were stated once for a whole list of compounds, not compound by compound.", "data": [{"test_system": "SPF-grade Kunming mice", "experiment": "Determination of half-lethal dose (LD50) in mice", "type": "in vivo", "conditions": "gastric administration, Bliss calculation method", "experimental": "The SPF-grade Kunming mice, belonging to the outbred stock and weighing 20±2 g, were selected (a ratio of the males to the females was 1:1). The dosage range of each compound was explored through pre-experiments. After that, formal tests were carried out. In the range of 0-100% of the lethal dose obtained by the pre-experiments, five doses were selected to increase or decrease according to the isobaric series to allow the mortality of one half of the groups to be 50% or above, and the other half to be 50% or less. After animal grouping and dosage calculation were completed, gastric administration was performed according to the group. The time from the administration to the beginning of the occurrence of toxic reaction, the poisoning phenomenon and the occurrence sequence thereof, the time of the first occurrence of death, the time of death concentration, and the time of the last occurrence of death were recorded. The number of deaths in each group was recorded day by day.", "values": [{"compound": "N#CCCNc1nonc1-c1nc2cc(Cl)ccc2n1CC(F)(F)c1ccc(N)cc1", "note": "[Compound 5]", "Half-lethal dose (LD50)": "higher than that of the compound 11"}, {"compound": "N#CCCNc1nonc1-c1nc2cc(C(F)(F)F)ccc2n1CC(F)(F)c1ccc(N)cc1", "note": "[Compound 6]", "Half-lethal dose (LD50)": "higher than that of the compound 11"}, {"compound": "N#CCCNc1nonc1-c1nc2c(O)cccc2n1CC(F)(F)c1ccc(N)cc1", "note": "[Compound 2]", "Half-lethal dose (LD50)": "higher than that of the compound 11"}, {"compound": "N#CCCNc1nonc1-c1nc2ccccc2n1CC(F)(F)c1ccc(N)cc1", "note": "[Compound 1, 3-[(4-{1-[2-(4-aminophenyl)-2,2-difluoroethyl]-1H-benzimidazol-2-yl}-1,2,5-oxadiazol-3-yl)amino] propionitrile]", "Half-lethal dose (LD50)": "higher than that of the compound 11"}, {"compound": "Cc1ccc2c(c1)nc(-c1nonc1NCCC#N)n2CC(F)(F)c1ccc(N)cc1", "note": "[Compound 7]", "Half-lethal dose (LD50)": "higher than that of the compound 11"}, {"compound": "N#CCCNc1nonc1-c1nc2cc(O)ccc2n1CC(F)(F)c1ccc(N)cc1", "note": "[Compound 3]", "Half-lethal dose (LD50)": "higher than that of the compound 11"}, {"compound": "N#CCCNc1nonc1-c1nc2ccccc2n1CC(F)c1ccc(N)cc1", "note": "(stereo not shown) [Compound 8, 3-[(4-{1-[2-(4-aminophenyl)-2-fluoroethyl]-1H-benzimidazol-2-yl}-1,2,5-oxadiazol-3-yl)amino] propionitrile]", "Half-lethal dose (LD50)": "higher than that of the compound 11"}, {"compound": "N#CCCNc1nonc1-c1nc2ccccc2n1C(F)(F)c1ccc(N)cc1", "note": "[Compound 9]", "Half-lethal dose (LD50)": "higher than that of the compound 11"}, {"compound": "N#CCCNc1nonc1-c1nc2ccccc2n1CCC(F)(F)c1ccc(N)cc1", "note": "[Compound 10]", "Half-lethal dose (LD50)": "higher than that of the compound 11"}, {"compound": "N#CCCNc1nonc1-c1nc2c(Cl)cccc2n1CC(F)(F)c1ccc(N)cc1", "note": "[Compound 4]", "Half-lethal dose (LD50)": "higher than that of the compound 11"}]}]}
